Article PMC12655185 (Pharmaceuticals, 2025)
For some of these results: Plain letter strings leave the end groups untold.

Experiments:
[1] = general procedure: Fmoc solid-phase peptide synthesis; Wang resin; HATU/DIPEA (NODA-GA coupling); conditions: whole synthesis
[2] = general procedure: Fmoc solid-phase peptide synthesis; 2-CTC resin (Iris biotech), Wang resin (Iris biotech) or Rink amide resin (carbolution); HATU/DIPEA (NODA-GA coupling); conditions: whole synthesis, 220 nm
[3] = general procedure: Fmoc solid-phase peptide synthesis; 2-CTC resin; HATU/DIPEA (NODA-GA coupling); conditions: whole synthesis
[4] = general procedure: Fmoc solid-phase peptide synthesis; Rink amide resin; HATU/DIPEA (NODA-GA coupling); conditions: whole synthesis

In the case of DRNSQKINPRPL, the isolated mass ([1]; scale 34.7 μmol) is reported as 12.4 mg, the isolated yield ([1]; scale 34.7 μmol) is reported as 25% and the “final HPLC purity” value [2] is reported as 99.0%.

With NODA-GA-SNDRPPNILQKR the isolated mass ([1]; scale 48.5 μmol) was 19.5 mg, the isolated yield ([1]; scale 48.5 μmol) was 22% and the “final HPLC purity” value [2] was 98.5%.

In the case of NODA-GA-SNDRPPNILQQR, the isolated mass ([3]; scale 55.8 μmol) is reported as 16.0 mg, the isolated yield ([3]; scale 55.8 μmol) is reported as 16% and the “final HPLC purity” value [2] is reported as 96.4%.

For RRPQDLPINQNS, the isolated mass ([3]; scale 14.6 μmol) was 11.3 mg, the isolated yield ([3]; scale 14.6 μmol) was 54% and the “final HPLC purity” value [2] was 99.0%.

With SNDRPPNILQKR the isolated mass ([1]; scale 39.1 μmol) was 10.5 mg, the isolated yield ([1]; scale 39.1 μmol) was 19% and the “final HPLC purity” value [2] was 99.8%.

For SNDRPPNILQKRXXXK(NODA-GA)-CONH2, the isolated mass ([4]; scale 5.60 μmol) was 2.5 mg, the isolated yield ([4]; scale 5.60 μmol) was 19% and the “final HPLC purity” value [2] was 98.6%.

With SNDRPPNILQQR the isolated mass ([3]; scale 26.3 μmol) was 7.96 mg, the isolated yield ([3]; scale 26.3 μmol) was 21% and the “final HPLC purity” value [2] was 99.1%.

In the case of SNDRPPNILQQRXXXK(NODA-GA), the isolated mass ([4]; scale 12.4 μmol) is reported as 5.26 mg, the isolated yield ([4]; scale 12.4 μmol) is reported as 18% and the “final HPLC purity” value ([2]; T1 r11) is reported as no less than 98.5%. For the same substance, the “final HPLC purity” value ([2]; run 1) was 98.4%.

With SulfoCy3-SNDRPPNILQKR the isolated mass ([3]; scale 26.0 μmol) was 3.74 mg, the isolated yield ([3]; scale 26.0 μmol) was 7% and the “final HPLC purity” value [2] was 98.2%.

In the case of SulfoCy3-SNDRPPNILQQR, the isolated mass ([3]; scale 14.1 μmol) is reported as 2.08 mg, the isolated yield ([3]; scale 14.1 μmol) is reported as 7% and the “final HPLC purity” value [2] is reported as 99.8%.
